Results from paper PMC11516157.

Sequences of proteins named here, by UniProt entry; tags and fusion partners are left off. A change or cut given only in a name is not applied to a line headed by its entry.
UniProt P12643: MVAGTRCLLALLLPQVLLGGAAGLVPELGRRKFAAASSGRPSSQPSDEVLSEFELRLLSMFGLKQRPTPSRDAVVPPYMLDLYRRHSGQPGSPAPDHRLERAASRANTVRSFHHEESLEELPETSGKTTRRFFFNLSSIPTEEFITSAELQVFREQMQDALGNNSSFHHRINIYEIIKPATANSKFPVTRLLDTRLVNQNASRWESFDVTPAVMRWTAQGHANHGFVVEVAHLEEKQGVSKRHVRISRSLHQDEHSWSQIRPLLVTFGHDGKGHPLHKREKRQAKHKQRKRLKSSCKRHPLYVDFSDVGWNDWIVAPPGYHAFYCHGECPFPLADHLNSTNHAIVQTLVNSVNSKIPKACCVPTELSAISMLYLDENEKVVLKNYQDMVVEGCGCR

Molecular target: T1, osteomodulin (OMD), endogenous in human renal interstitial fibroblasts (human (endogenous in hRIFs)) (UniProt Q99983)
T1 sequence: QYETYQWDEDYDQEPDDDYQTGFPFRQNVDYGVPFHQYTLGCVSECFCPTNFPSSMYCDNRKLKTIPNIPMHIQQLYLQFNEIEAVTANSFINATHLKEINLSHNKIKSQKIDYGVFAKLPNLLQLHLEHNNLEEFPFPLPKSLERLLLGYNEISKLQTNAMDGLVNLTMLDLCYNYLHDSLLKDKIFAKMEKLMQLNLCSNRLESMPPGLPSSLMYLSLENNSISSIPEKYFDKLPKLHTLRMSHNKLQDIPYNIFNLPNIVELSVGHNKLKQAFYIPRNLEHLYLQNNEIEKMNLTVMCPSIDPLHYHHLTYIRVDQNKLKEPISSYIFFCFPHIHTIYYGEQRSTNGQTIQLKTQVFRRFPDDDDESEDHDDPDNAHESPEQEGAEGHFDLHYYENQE
Assay: affinity purification with mass spectrometry; anti-OMD or IgG (negative control) on magnetic protein A/G beads, whole cell lysate of hRIFs, 4 °C overnight; precipitates analysed by MALDI-TOF proteomics

Question: With “bone morphogenetic protein 2 (BMP2), endogenous in human renal interstitial fibroblasts (from UniProt P12643)” as the substance, how does the binding read?
Answer: Its binding is “binds”.

Results are given in words; binding and its absence hold for the method and conditions named. In cells and extracts the contact can be indirect. These calls come from enrichment with a bait or labelling near it, and not all partners need be listed.
